These are yes or no findings as the source states them, for the method shown. In cells and extracts the contact can be indirect. Some entries that bind do so weakly or less than the wild type. Where a sequence is shown, tags or fusion partners need not be part of it.
Biological target: GST-STUB1 (human) (UniProt Q9UNE7)
Test: pull-down; GST, GST-STUB1 or GST-UHRF1 from E. coli BL21 on GST magnetic beads, incubated with HEK293T cell lysate at 4 °C for 4 h; immunoblot; only the target purified

Protein sequences, listed by entry. Tags and fused reporters are not part of them.
UniProt Q9UNE7: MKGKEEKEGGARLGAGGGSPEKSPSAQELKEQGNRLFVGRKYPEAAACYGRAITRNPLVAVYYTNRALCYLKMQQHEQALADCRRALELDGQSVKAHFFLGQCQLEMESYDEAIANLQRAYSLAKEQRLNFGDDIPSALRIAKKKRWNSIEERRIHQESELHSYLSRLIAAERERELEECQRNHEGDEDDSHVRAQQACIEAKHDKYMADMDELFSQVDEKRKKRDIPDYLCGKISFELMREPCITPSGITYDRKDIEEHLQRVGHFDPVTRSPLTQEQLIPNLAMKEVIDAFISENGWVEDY

B1: UHRF1 in HEK293T cell lysate (prey of the GST pull-down) (protein, UniProt Q96T88 1-793)
chain: MWIQVRTMDGRQTHTVDSLSRLTKVEELRRKIQELFHVEPGLQRLFYRGKQMEDGHTLFDYEVRLNDTIQLLVRQSLVLPHSTKERDSELSDTDSGCCLGQSESDKSSTHGEAAAETDSRPADEDMWDETELGLYKVNEYVDARDTNMGAWFEAQVVRVTRKAPSRDEPCSSTSRPALEEDVIYHVKYDDYPENGVVQMNSRDVRARARTIIKWQDLEVGQVVMLNYNPDNPKERGFWYDAEISRKRETRTARELYANVVLGDDSLNDCRIIFVDEVFKIERPGEGSPMVDNPMRRKSGPSCKHCKDDVNRLCRVCACHLCGGRQDPDKQLMCDECDMAFHIYCLDPPLSSVPSEDEWYCPECRNDASEVVLAGERLRESKKKAKMASATSSSQRDWGKGMACVGRTKECTIVPSNHYGPIPGIPVGTMWRFRVQVSESGVHRPHVAGIHGRSNDGAYSLVLAGGYEDDVDHGNFFTYTGSGGRDLSGNKRTAEQSCDQKLTNTNRALALNCFAPINDQEGAEAKDWRSGKPVRVVRNVKGGKNSKYAPAEGNRYDGIYKVVKYWPEKGKSGFLVWRYLLRRDDDEPGPWTKEGKDRIKKLGLTMQYPEGYLEALANREREKENSKREEEEQQEGGFASPRTGKGKWKRKSAGGGPSRAGSPRRTSKKTKVEPYSLTAQQSSLIREDKSNAKLWNEVLASLKDRPASGSPFQLFLSKVEETFQCICCQELVFRPITTVCQHNVCKDCLDRSFRAQVFSCPACRYDLGRSYAMQVNQPLQTVLNQLFPGYGNGR
Question: With B1 as the binder, how does the binding read?
Answer: binds

From article PMC11395162
